Results as given in article PMC6562204 (Bioorganic & Medicinal Chemistry, 2018).

Tested on: CK2α
Conditions: co-crystal / soak with CK2α

SMILES	binding site observed in crystal structure
NCc1cc(Cl)c(Cl)c(-c2ccc[nH]2)c1 [Compound 6]	bound exclusively at the interface
NCCc1ccc(Cl)c(Cl)c1 [NMR154L]	binding in the interface pocket as well as the ATP site and the αD site
